For some of these results: Part of at least one peptide drawing is inferred or uncertain, most often the ends. Some of these results come from one statement about several compounds together. For some of these results: At least one structure is not confirmed: it was looked up by name or label, or the drawing left a doubt. Numbered stars: 1 amine (or outer) side, 2 acyl side, 3 side chain; on linkers, the order of the positions; unused ones are H or OH. Square brackets hold non-standard residues; d marks the D form. Peptide text beside a SMILES is read from it. * marks the point of attachment. LeuΨ(S-CHOHCH2)Ala = CC(C)C[C@H](N[*:1])[C@@H](O)C[C@@H](C)C(=O)[*:2]; Sta = CC(C)C[C@H](N)[C@@H](O)CC(=O)O; Cbz = O=C(OCc1ccccc1)*
Legend:
[1] = tested on: human glioblastoma (U-87 MG) xenografts; test: human glioblastoma U-87 MG xenografts in nude mice; format: in vivo; conditions: after one week of treatment
Protocol: FIG. 8a: Anti-tumoral effect of the γ-secretase inhibitor DAPT and of the β-secretase inhibitor Z-VLL-CHO on human glioblastoma (U-87 MG) xenografts growth rates. U-87 MG cells (6×10^6) were injected subcutaneously into both flanks of 8-10 weeks-old nude mice. Mice were injected intraperitoneally with either the vehicle, 5 mg/Kg of body weight of the β-secretase inhibitor Z-VLL-CHO or 10 mg/Kg of body weight of the γ-secretase inhibitor DAPT, starting when tumors had reached a mean tumor volume of approximately 140 mm^3 (day 8 post implantation). Injections were given everyday for 9 days. […] FIG. 8b: Representative pictures of sections of glioblastoma tumors immunostained with CD31 antibodies. FIG. 8c: Histogram depicting the estimation of glioblastoma tumor vascularization.
The human glioblastoma U-87 MG and human lung adenocarcinoma A-549 cell lines were obtained from American Tissue Culture Type Collection (Manassas, Va.) and were grown in DMEM containing 1×penicilline-streptomycine-fungizone and 10% fetal bovine serum at 37° C. in a humidified atmosphere of 5% CO2. […] Tumor volume (in mm^3) was determined using the formula (length×width^2)/2, where length was the longest axis and width the measurement at right angles to the length (Clarke et al. 2000). […] Data were expressed as mean tumor volume±S.E for each treatment group. […]

Protein sequences, listed by entry. Tags and fused reporters are not part of them. Residues count along the entry.
UniProt P56817, 46-501: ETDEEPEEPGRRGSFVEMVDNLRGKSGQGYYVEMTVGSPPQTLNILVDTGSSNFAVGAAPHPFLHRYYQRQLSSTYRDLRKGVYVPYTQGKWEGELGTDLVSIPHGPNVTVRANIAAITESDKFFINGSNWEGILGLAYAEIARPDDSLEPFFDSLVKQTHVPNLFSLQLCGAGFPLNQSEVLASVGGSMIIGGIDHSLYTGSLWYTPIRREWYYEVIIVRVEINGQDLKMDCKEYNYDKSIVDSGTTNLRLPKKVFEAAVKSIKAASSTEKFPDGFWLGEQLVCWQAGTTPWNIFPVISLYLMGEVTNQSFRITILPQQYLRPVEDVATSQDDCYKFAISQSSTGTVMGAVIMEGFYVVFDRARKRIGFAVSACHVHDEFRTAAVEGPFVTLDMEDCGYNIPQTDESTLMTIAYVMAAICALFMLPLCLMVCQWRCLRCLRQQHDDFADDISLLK

[2] = tested on: APP; test: carboxyl-terminal APP fragments in human brain endothelial cell lysates (immunoblotting); format: cell-based; conditions: 5 μM, 24 hours
Protocol: Confluent human brain endothelial cells (grown on 75 cm2 flasks with EBM 4% FBS medium) were treated for 24 hours with 5 μM of Z-VVL-CHO, 5 μM of L-685,458, 5 μM of OM99-2, 5 AM of DAPT or went untreated (control). Experiments were done in quadriplicate for each treatment condition. 6E10 (Signet), a mAb that recognizes residues 1-17 of human Aβ (Van Nostrand et al., Nature, 341, 546-549, 1989) was used to immunoprecipitate soluble APP generated following cleavage by α-secretase from cell culture medium. Immunoprecipitated material was resolved on a 4-20% gradient SDS-PAGE, transferred to PVDF membranes and immunodetected with mAb 22C11 (Roche Diagnostics) that recognizes the amino acids 66-81 of the N-terminal portion of APP (Hibich, C., J. Biol. Chem., 268, 26571-26577, 1993). Human brain endothelial cells were lysed on ice using MPERTM reagent (Pierce) supplemented with 1 mM PMSF and 1 mM of sodium-orthovanadate. Samples were sonicated and centrifuged at 10,000 g for 30 min at 4° C. The protein content of the lysates was determined using the BCA Protein assay kit (Pierce). […]

[3] = tested on: human brain endothelial cells; test: proliferation of human brain endothelial cells (Quick cell proliferation assay kit); format: cell-based; conditions: various doses, 24 hours
Protocol: Primary cultures of human brain endothelial cells were plated at a density of 10^4 cells/[…] of EBM 4% in 96 wells culture plates and treated with various doses of γ-secretase and β-secretase inhibitors as indicated in the figure legends. Following 24 hours in culture, the EBM covering the cells was removed and assayed for Lacticodehydrogenase (LDH) activity using the cytotoxicity detection kit (Roche Diagnostic Corporation, Ind.). Cells were covered with […] of EBM 4% and cellular proliferation measured using the Quick cell proliferation assay kit (Biovision Research Products, Calif.).

[4] = tested on: explants of rat aortae; test: rat aortic ring model of angiogenesis (microvessel outgrowths); format: cell-based, Sprague Dawley rats; conditions: day 4, 5 and 6
Protocol: Twenty four well tissue culture grade plates (Nalgene International, NY) were covered with […] of Matrigel (Becton-Dickinson, Bedford, Mass.) and allowed to gel for 30 min at 37° C., 5% CO2. Briefly, thoracic aortae were excised from 9 month-old Sprague Dawley rats. After removing the fibroadipose tissue, arteries were sectioned into 1 mm long cross sections, rinsed 5 times with EBM (Clonetics Corp.) containing 4% fetal bovine serum (FBS) and placed on the Matrigel coated wells. Artery rings were covered with an additional […] of Matrigel. After polymerization the Matrigel was covered with 1 mL of EBM (4% FBS) containing various doses of Z-VVL-CHO, OM99-2, P10-P4′statV, DAPT, or L-685,458 as indicated in the figure legends (the culture medium was changed every 3 days). Pictures were taken at day 4, 5 and 6 using a 4×objective. Microvessel outgrowth area was quantified using the Image Pro Plus software. Briefly, ring cultures were photographed using a digital video camera linked to an Olympus BX60 microscope. The outgrowth area was delineated and measured with the Image Pro Plus software by using a strategy of microvessel outgrowth detection based on difference in color intensities between the outgrowths, the Matrigel and the artery ring. […] Results were expressed as a percentage of the area occupied by microvessel outgrowths at day 4 in control condition.

[5] = molecular target: T1, β-secretase (Homo sapiens, UniProt P56817); conditions: at 5 μM; solubilized membrane fractions from BACE transfected MDCK cells; cited from earlier work
T1 construct: expressed in transfected cells; host or cells: MDCK cells

Compound	reduction of the volume of the U-87 MG tumors [1]	accumulation of carboxyl-terminal APP fragments (APP CTF) [2]	proliferation of human brain endothelial cells, dose dependence [3]	sprouting of microvessel outgrowths, overall / dose dependence [4]	proteolytic activity of β-secretase [5]
CC(C)C[C@@H](C=O)NC(=O)[C@H](CC(C)C)NC(=O)[C@@H](NC(=O)OCc1ccccc1)C(C)C [Z-VLL-CHO, N-benzyloxycarbony-val-leu-leucinal] (Cbz-Val-Leu-Leu-aldehyde)	more than 90%				
CC(C)C[C@H](NC(=O)[C@H](CC(N)=O)NC(=O)[C@@H](NC(=O)[C@@H](N)CCC(=O)O)C(C)C)[C@@H](O)C[C@@H](C)C(=O)N[C@@H](C)C(=O)N[C@@H](CCC(=O)O)C(=O)N[C@@H](Cc1ccccc1)C(=O)O [OM99-2, Glu-Val-Asn-Leu-ψ-Ala-Ala-Glu-Phe [ψ denotes replacement of CONH by (S)—CH(OH)CH2]] (H-EVN[LeuΨ(S-CHOHCH2)Ala]AEF-OH)		significantly reduces	dose dependently inhibited	dose dependently and potently inhibited	
C[C@H](NC(=O)Cc1cc(F)cc(F)c1)C(=O)N[C@H](C(=O)OC(C)(C)C)c1ccccc1 [DAPT, N-[N-(3,5-difluorophenacetyl-L-alanyl)]-S-phenylglycine t-butyl ester]	more than 90%				
CC(C)C[C@H](NC(=O)[C@H](CC(N)=O)NC(=O)[C@@H](NC(=O)[C@@H](N)CCC(=O)O)C(C)C)[C@@H](O)CC(=O)N[C@H](C(=O)N[C@@H](C)C(=O)N[C@@H](CCC(=O)O)C(=O)N[C@@H](Cc1ccccc1)C(N)=O)C(C)C [GL189, H-Glu-Val-Asn-Statine-Val-Ala-Glu-Phe-NH] (H-EVN[Sta]VAEF-NH2)			dose dependently inhibited		completely blocks
